This is one part of the list.
Legend:
Assay in all cases: log2 fold change, soluble protein after heating vs DMSO (PISA); higher = thermal stabilisation; K562 cells, 10 uM, 30 min; active = over 0.2 and 3.5 SD of the protein, either way, in both replicates (recomputed)
[1] = compound: CC[C@@H]1C(=O)N(C)c2cnc(Nc3ccc(C(=O)NC4CCN(C)CC4)cc3OC)nc2N1C1CCCC1
Procedure, shortened: (§1)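 Thermal stability values are relative to control samples and come from duplicates. They are expressed as log2 fold changes. For measurement, K562 cells (2×10^6 cells/mL) received 10 μM compound for 30 min, and aliquots were heated for 3 min over 48°C-58°C, pooled, and extracted at 4°C in PBS with 0.5% NP-40. Soluble protein, the supernatant after 21,000xg for 90 min, was quantified by TMTpro 16plex LC-MS/MS with equalised channel sums.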

Amino acid sequences for entries named in this document (tags omitted). A change or cut given only in a name is not applied to a line headed by its entry.
UniProt P62310: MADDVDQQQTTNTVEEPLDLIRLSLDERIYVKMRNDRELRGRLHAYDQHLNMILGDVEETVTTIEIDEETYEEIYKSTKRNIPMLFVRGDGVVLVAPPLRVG
UniProt Q5U5X0: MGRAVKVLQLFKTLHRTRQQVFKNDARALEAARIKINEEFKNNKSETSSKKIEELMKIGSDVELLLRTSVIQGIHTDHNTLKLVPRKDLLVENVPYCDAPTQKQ
UniProt Q9UNF1: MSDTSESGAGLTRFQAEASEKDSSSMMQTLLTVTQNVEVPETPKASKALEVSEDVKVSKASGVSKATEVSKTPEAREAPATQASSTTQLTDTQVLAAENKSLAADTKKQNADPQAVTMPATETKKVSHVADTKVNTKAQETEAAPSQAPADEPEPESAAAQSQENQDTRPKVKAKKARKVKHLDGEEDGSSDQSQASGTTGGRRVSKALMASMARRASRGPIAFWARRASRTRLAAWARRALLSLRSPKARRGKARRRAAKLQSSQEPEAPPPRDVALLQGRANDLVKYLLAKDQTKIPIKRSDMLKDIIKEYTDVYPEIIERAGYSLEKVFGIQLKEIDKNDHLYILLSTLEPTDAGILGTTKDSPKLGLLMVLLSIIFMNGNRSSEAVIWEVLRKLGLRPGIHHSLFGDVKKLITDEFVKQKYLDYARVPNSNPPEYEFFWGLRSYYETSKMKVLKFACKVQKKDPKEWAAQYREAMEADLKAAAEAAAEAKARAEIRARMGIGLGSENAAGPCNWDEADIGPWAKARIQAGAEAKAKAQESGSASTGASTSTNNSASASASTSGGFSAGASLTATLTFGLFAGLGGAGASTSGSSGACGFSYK
UniProt P55145: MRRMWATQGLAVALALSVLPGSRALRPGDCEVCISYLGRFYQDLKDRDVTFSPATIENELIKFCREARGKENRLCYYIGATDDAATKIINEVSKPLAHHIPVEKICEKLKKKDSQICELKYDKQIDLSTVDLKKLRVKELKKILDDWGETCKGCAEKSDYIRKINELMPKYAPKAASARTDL
UniProt Q9Y333: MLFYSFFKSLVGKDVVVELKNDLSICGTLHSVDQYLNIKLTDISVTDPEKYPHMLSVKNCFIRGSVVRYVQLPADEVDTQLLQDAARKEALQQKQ
UniProt O43325: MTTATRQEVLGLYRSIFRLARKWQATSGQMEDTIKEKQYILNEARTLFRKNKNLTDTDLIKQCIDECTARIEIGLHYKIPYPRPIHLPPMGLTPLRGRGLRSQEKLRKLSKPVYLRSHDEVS
UniProt P20645: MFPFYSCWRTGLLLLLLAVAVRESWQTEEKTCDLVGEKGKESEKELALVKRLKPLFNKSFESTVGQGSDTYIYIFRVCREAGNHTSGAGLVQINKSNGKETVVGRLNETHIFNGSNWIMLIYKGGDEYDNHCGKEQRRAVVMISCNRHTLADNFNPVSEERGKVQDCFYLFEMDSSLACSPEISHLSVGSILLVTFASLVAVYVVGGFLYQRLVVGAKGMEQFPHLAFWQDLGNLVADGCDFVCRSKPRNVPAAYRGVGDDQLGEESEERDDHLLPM
UniProt Q9Y608: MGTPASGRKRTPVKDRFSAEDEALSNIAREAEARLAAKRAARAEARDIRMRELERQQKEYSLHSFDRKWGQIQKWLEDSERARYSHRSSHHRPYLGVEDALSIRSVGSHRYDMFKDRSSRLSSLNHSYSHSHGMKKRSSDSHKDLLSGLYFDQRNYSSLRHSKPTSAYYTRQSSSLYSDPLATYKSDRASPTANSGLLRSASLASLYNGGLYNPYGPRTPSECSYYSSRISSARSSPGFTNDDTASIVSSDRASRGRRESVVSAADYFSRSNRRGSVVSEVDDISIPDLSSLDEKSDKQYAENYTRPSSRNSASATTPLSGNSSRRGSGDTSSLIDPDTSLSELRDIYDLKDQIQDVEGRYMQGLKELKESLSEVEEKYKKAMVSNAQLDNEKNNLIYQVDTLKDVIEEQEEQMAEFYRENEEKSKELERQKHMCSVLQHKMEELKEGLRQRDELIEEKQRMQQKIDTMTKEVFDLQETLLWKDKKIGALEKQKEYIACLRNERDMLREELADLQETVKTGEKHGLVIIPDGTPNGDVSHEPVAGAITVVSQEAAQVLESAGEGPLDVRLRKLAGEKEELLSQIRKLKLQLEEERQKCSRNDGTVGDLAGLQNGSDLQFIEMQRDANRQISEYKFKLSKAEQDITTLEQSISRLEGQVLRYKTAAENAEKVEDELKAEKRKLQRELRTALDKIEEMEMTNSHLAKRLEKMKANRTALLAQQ
UniProt Q5SRI9: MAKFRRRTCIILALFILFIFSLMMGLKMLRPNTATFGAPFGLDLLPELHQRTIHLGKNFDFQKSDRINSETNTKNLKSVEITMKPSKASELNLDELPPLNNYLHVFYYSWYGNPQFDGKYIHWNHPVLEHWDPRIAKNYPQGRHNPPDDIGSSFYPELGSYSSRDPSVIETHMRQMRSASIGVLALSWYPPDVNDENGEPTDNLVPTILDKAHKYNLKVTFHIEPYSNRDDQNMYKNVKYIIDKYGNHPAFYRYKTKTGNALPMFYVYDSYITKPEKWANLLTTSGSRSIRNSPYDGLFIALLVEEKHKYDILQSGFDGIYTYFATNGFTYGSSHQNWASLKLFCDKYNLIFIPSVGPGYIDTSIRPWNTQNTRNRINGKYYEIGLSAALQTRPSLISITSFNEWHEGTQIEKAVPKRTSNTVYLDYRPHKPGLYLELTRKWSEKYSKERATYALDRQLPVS
UniProt Q96S90: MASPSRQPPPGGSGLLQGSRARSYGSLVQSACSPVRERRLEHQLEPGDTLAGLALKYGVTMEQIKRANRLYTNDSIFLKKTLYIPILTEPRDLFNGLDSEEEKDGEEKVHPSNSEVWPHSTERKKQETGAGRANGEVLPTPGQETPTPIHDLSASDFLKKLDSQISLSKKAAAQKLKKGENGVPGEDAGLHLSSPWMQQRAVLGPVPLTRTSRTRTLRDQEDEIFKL
UniProt Q7L5Y9: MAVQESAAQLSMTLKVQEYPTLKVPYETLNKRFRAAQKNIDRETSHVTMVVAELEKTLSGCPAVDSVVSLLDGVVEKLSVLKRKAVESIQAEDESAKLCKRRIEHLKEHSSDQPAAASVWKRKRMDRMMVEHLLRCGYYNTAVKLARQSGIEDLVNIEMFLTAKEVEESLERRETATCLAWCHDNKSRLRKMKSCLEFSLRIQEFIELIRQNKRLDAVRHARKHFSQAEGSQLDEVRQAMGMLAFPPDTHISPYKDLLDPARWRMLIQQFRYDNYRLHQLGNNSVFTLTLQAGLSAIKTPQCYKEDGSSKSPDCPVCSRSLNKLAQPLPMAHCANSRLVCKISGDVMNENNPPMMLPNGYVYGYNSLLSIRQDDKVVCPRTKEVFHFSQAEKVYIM
UniProt O75608: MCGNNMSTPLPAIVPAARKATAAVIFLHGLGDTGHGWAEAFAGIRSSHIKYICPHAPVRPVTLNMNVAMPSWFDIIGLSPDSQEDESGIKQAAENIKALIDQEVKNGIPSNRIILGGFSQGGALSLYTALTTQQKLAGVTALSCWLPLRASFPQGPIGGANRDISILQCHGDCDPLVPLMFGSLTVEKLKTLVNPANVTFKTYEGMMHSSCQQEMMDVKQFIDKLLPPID
UniProt Q9H0U3: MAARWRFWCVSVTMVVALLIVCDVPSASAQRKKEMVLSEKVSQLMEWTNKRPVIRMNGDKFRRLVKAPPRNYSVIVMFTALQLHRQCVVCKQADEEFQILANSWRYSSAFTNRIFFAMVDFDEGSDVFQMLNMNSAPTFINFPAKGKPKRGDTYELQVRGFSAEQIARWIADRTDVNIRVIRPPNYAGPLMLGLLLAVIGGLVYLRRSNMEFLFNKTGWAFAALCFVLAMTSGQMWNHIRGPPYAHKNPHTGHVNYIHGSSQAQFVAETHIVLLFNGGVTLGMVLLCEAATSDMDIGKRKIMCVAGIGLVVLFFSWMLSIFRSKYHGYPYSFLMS
UniProt Q66K74: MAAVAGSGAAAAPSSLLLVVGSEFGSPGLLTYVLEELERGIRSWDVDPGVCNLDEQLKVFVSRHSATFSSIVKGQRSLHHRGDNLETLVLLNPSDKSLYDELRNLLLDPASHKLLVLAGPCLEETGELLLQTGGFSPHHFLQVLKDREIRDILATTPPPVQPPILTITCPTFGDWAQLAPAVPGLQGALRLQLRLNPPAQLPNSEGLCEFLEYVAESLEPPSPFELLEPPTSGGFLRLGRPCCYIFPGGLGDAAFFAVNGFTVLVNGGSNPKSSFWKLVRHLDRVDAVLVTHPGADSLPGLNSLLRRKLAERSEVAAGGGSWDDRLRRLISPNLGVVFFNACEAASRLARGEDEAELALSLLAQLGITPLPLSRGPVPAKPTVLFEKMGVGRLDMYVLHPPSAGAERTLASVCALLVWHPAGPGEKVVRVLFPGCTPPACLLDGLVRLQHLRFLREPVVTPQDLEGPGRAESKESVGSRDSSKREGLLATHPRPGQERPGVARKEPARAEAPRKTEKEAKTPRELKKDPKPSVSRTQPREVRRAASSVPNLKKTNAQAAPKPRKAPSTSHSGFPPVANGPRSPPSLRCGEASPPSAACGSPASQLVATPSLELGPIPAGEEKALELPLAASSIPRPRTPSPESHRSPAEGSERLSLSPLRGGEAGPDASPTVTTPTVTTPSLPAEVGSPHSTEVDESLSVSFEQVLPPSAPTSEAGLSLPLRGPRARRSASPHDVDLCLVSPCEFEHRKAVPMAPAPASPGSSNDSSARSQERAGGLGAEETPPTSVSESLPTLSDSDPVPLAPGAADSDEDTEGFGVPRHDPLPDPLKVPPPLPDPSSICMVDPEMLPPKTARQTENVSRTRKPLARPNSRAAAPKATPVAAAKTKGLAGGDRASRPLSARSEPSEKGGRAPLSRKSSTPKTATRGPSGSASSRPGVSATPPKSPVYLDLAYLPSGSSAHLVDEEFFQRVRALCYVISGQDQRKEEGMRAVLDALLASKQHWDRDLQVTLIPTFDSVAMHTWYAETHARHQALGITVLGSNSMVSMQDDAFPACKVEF
UniProt P28482, whole entry, looked up: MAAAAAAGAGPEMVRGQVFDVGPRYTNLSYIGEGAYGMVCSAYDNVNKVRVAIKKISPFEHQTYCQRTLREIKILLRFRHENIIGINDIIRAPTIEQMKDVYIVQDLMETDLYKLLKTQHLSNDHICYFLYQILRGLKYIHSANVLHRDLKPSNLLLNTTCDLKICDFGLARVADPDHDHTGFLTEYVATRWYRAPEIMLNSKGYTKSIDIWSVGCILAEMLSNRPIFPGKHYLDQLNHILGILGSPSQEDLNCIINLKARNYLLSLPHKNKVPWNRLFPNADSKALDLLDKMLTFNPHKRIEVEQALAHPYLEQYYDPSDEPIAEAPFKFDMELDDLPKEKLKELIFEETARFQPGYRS

volasertib = compound: CC[C@@H]1C(=O)N(C)c2cnc(Nc3ccc(C(=O)N[C@H]4CC[C@H](N5CCN(CC6CC6)CC5)CC4)cc3OC)nc2N1C(C)C [volasertib]
Procedure, shortened: as §1

[2] = compound: CC[C@H](C)N1C=C(C2=C(C=C(C=C21)C3=CN=C(C=C3)N4CCNCC4)C(=O)NCC5=C(C=C(NC5=O)C)C)C
Procedure, shortened: as §1

epoxomicin = compound: CC[C@H](C)[C@@H](C(=O)N[C@@H]([C@@H](C)O)C(=O)N[C@@H](CC(C)C)C(=O)[C@]1(CO1)C)NC(=O)[C@H]([C@@H](C)CC)N(C)C(=O)C [epoxomicin]
Procedure, shortened: as §1

[3] = compound: CCn1c(C(=O)N(C2CC2)C2CC2)cc2c3c(ncn3C)c(Nc3cc(C)n(C)n3)nc21
Procedure, shortened: as §1

[4] = compound: CCn1cc(-c2ccnc3[nH]c(-c4cccc(CN(C)C)c4)cc23)c(-c2ccc(NC(=O)N(C)C)cc2)n1
Procedure, shortened: as §1

[5] = compound: CN(C)CC(=O)Nc1ccc2[nH]c(=O)c3ccccc3c2c1
Procedure, shortened: as §1

rosiglitazone = compound: CN(CCOC1=CC=C(C=C1)C[C@H]2C(=O)NC(=O)S2)C3=CC=CC=N3 (racemic) [rosiglitazone]
Procedure, shortened: as §1

[6] = compound: CN1C2=C(C3=C1C(=O)N(N=C3)CC4=CC(=CC=C4)N)SC(=C2)S(=O)C
Procedure, shortened: as §1

[7] = compound: CN1CCC(CNc2ccc3ncc(-c4cccc(OC(F)(F)F)c4)n3n2)CC1
Procedure, shortened: as §1

saracatinib = compound: CN1CCN(CCOc2cc(OC3CCOCC3)c3c(Nc4c(Cl)ccc5c4OCO5)ncnc3c2)CC1 [saracatinib]
Procedure, shortened: as §1

sotrastaurin = compound: CN1CCN(c2nc(C3=C(c4c[nH]c5ccccc45)C(=O)NC3=O)c3ccccc3n2)CC1 [sotrastaurin]
Procedure, shortened: as §1

alvocidib = compound: CN1CC[C@H](c2c(O)cc(O)c3c(=O)cc(-c4ccccc4Cl)oc23)[C@H](O)C1 [alvocidib]
Procedure, shortened: as §1

Tubastatin A = compound: CN1CCc2c(c3ccccc3n2Cc2ccc(C(=O)NO)cc2)C1 [Tubastatin A]
Procedure, shortened: as §1

[8] = compound: CNC(=O)C1=CC=CC=C1NC2=NC(=NC=C2Cl)NC3=C(C=C(C=C3)N4CCOCC4)OC
Procedure, shortened: as §1

defactinib = compound: CNC(=O)c1ccc(Nc2ncc(C(F)(F)F)c(NCc3nccnc3N(C)S(C)(=O)=O)n2)cc1 [defactinib]
Procedure, shortened: as §1

rucaparib = compound: CNCc1ccc(-c2[nH]c3cc(F)cc4c3c2CCNC4=O)cc1 [rucaparib]
Procedure, shortened: as §1

[9] = compound: CNc1nc(-c2ccc3c(N)n[nH]c3c2)cc(N2C[C@@H](C(=O)NC3CCCCC3)CC[C@H]2C)n1
Procedure, shortened: as §1

encorafenib = compound: COC(=O)N[C@@H](C)CNc1nccc(-c2cn(C(C)C)nc2-c2cc(Cl)cc(NS(C)(=O)=O)c2F)n1 [encorafenib]
Procedure, shortened: as §1

[10] = compound: COC(=O)[C@H](CCSC)NC(=O)C1=C(C=C(C=C1)NC[C@H](CS)N)C2=CC=CC=C2
Procedure, shortened: as §1

Measured: log2 fold change

LSM3 (UniProt P62310)
inactive: [1] 0.007 | volasertib 0.01 | [2] -0.069 | epoxomicin -0.02 | [3] 0.002 | [4] -0.12 | [5] 0.02 | rosiglitazone -0.056 | [6] -0.044 | [7] 0.102 | saracatinib 0.036 | sotrastaurin 0.015 | alvocidib -0.004 | Tubastatin A 0.035 | [8] -0.089 | defactinib 0.007 | rucaparib 0.014 | [9] 0.017 | encorafenib -0.046 | [10] -0.01

LYRM7 (UniProt Q5U5X0)
inactive: [1] 0.013 | volasertib -0.008 | [2] 0.018 | epoxomicin 0.009 | [3] 0.04 | [4] 0.026 | [5] 0.036 | rosiglitazone 0.009 | [6] -0.031 | [7] -0.007 | saracatinib -0.02 | sotrastaurin 0.029 | alvocidib -0.041 | Tubastatin A 0.019 | [8] 0.019 | defactinib -0.019 | rucaparib 0.013 | [9] -0.046 | encorafenib -0.028 | [10] -0.027

MAGED2 (UniProt Q9UNF1)
inactive: [1] 0.079 | volasertib -0.039 | [2] -0.282 | epoxomicin -0.1 | [3] -0.226 | [4] -0.042 | [5] 0.002 | rosiglitazone 0.132 | [6] 0.185 | [7] -0.142 | saracatinib -0.165 | sotrastaurin -0.215 | alvocidib 0.125 | Tubastatin A 0.053 | [8] -0.319 | defactinib -0.117 | rucaparib -0.261 | [9] -0.054 | encorafenib -0.028 | [10] -0.021

MANF (UniProt P55145)
inactive: [1] 0.012 | volasertib 0.065 | [2] -0.033 | epoxomicin -0.024 | [3] 0.013 | [4] 0.007 | [5] -0.015 | rosiglitazone -0.017 | [6] -0.056 | [7] -0.007 | saracatinib 0.015 | sotrastaurin 0.004 | alvocidib 0.006 | Tubastatin A -0.047 | [8] 0.088 | defactinib -0.022 | rucaparib -0.032 | [9] -0.018 | encorafenib -0.043 | [10] -0.005

LSM2 (UniProt Q9Y333)
inactive: [1] 0.057 | volasertib 0.009 | [2] -0.027 | epoxomicin 0.007 | [3] 0.042 | [4] 0.004 | [5] 0.014 | rosiglitazone 0.006 | [6] -0.061 | [7] 0.031 | saracatinib 0.082 | sotrastaurin 0.068 | alvocidib -0.04 | Tubastatin A -0.031 | [8] -0.022 | defactinib 0.013 | rucaparib -0.051 | [9] -0.041 | encorafenib -0.008 | [10] -0.01

LYRM1 (UniProt O43325)
inactive: [1] 0.23 | volasertib -0.009 | [2] 0.057 | epoxomicin 0.076 | [3] 0.025 | [4] -0.12 | [5] -0.021 | rosiglitazone 0.047 | [6] -0.018 | [7] 0.259 | saracatinib 0.005 | sotrastaurin 0.047 | alvocidib -0.069 | Tubastatin A 0.031 | [8] -0.137 | defactinib -0.018 | rucaparib -0.065 | [9] -0.016 | encorafenib -0.038 | [10] -0.032

M6PR (UniProt P20645)
inactive: [1] 0.02 | volasertib 0 | [2] -0.04 | epoxomicin 0.046 | [3] -0.037 | [4] -0.061 | [5] -0.014 | rosiglitazone -0.039 | [6] 0.007 | [7] -0.009 | saracatinib 0.016 | sotrastaurin -0.005 | alvocidib -0.048 | Tubastatin A -0.071 | [8] 0.059 | defactinib -0.03 | rucaparib 0.026 | [9] -0.05 | encorafenib -0.059 | [10] 0.088

LRRFIP2 (UniProt Q9Y608)
inactive: [1] 0.067 | volasertib 0.08 | [2] 0.007 | epoxomicin 0.018 | [3] -0.036 | [4] -0.017 | [5] 0 | rosiglitazone -0.003 | [6] -0.018 | [7] -0.019 | saracatinib -0.001 | sotrastaurin -0.003 | alvocidib 0.039 | Tubastatin A 0.009 | [8] 0.013 | defactinib -0.039 | rucaparib -0.002 | [9] -0.017 | encorafenib -0.01 | [10] 0.014

MANEA (UniProt Q5SRI9)
inactive: [1] -0.009 | volasertib -0.025 | [2] -0.009 | epoxomicin 0.142 | [3] -0.001 | [4] 0.121 | [5] 0.044 | rosiglitazone 0.023 | [6] 0.001 | [7] -0.048 | saracatinib -0.011 | sotrastaurin 0.011 | alvocidib 0.002 | Tubastatin A 0.124 | [8] 0.007 | defactinib -0.024 | rucaparib 0.021 | [9] 0.005 | encorafenib -0.044 | [10] -0.022

LYSMD1 (UniProt Q96S90)
inactive: [1] -0.045 | volasertib -0.031 | [2] 0.073 | epoxomicin 0.029 | [3] -0.084 | [4] -0.012 | [5] 0.039 | rosiglitazone 0.062 | [6] 0.036 | [7] -0.051 | saracatinib 0.002 | sotrastaurin -0.012 | alvocidib -0.078 | Tubastatin A 0.029 | [8] 0.014 | defactinib -0.076 | rucaparib -0.048 | [9] -0.049 | encorafenib 0.007 | [10] 0.014

MAEA (UniProt Q7L5Y9)
inactive: [1] -0.009 | volasertib -0.13 | [2] 0.007 | epoxomicin 0.022 | [3] -0.001 | [4] 0.005 | [5] -0.049 | rosiglitazone 0.04 | [6] 0.028 | [7] 0.009 | saracatinib 0.018 | sotrastaurin -0.053 | alvocidib -0.028 | Tubastatin A 0.021 | [8] 0.006 | defactinib 0.023 | rucaparib 0.007 | [9] 0.002 | encorafenib 0.028 | [10] -0.015

MAPRE2 (UniProt Q15555)
inactive: [1] -0.028 | volasertib -0.245 | [2] 0.109 | epoxomicin -0.204 | [3] -0.036 | [4] 0.028 | [5] 0.102 | rosiglitazone -0.038 | [6] 0.13 | [7] -0.115 | saracatinib 0 | sotrastaurin -0.089 | alvocidib -0.078 | Tubastatin A 0.047 | [8] -0.064 | defactinib -0.146 | rucaparib 0.133 | [9] 0.128 | encorafenib 0.083 | [10] -0.132

LYPLA1 (UniProt O75608)
inactive: [1] 0.017 | volasertib -0.025 | [2] -0.001 | epoxomicin 0.032 | [3] 0.053 | [4] -0.027 | [5] 0.018 | rosiglitazone 0.021 | [6] -0.048 | [7] 0.035 | saracatinib 0.012 | sotrastaurin 0.012 | alvocidib -0.003 | Tubastatin A 0.006 | [8] 0.009 | defactinib -0.015 | rucaparib -0.051 | [9] -0.005 | encorafenib -0.022 | [10] 0.031

MAGT1 (UniProt Q9H0U3)
inactive: [1] 0.076 | volasertib -0.002 | [2] 0.003 | epoxomicin -0.006 | [3] 0.045 | [4] 0.003 | [5] -0.006 | rosiglitazone 0.008 | [6] 0.042 | [7] 0.131 | saracatinib -0.007 | sotrastaurin -0.009 | alvocidib 0.029 | Tubastatin A -0.001 | [8] 0.051 | defactinib 0.068 | rucaparib 0.007 | [9] -0.022 | encorafenib 0.019 | [10] -0.002

MAP1S (UniProt Q66K74)
inactive: [1] -0.046 | volasertib -0.096 | [2] 0.044 | epoxomicin 0.017 | [3] -0.046 | [4] 0.017 | [5] -0.003 | rosiglitazone 0.052 | [6] -0.033 | [7] -0.021 | saracatinib 0.03 | sotrastaurin -0.019 | alvocidib -0.014 | Tubastatin A 0.032 | [8] -0.012 | defactinib -0.024 | rucaparib 0.103 | [9] 0.077 | encorafenib 0.084 | [10] -0.05

MAPK1 (UniProt P28482)
inactive: [1] 0.013 | volasertib 0.059 | [2] -0.025 | epoxomicin 0.045 | [3] 0.001 | [4] 0.013 | [5] -0.004 | rosiglitazone 0.01 | [6] -0.05 | [7] -0.012 | saracatinib 0.041 | sotrastaurin 0.012 | alvocidib -0.019 | Tubastatin A -0.011 | [8] -0.004 | defactinib -0.001 | rucaparib -0.05 | [9] -0.025 | encorafenib -0.018 | [10] 0.044

Taken from the entries so far (3 entries):
LYRM1 (UniProt O43325)
inactive: [1] 0.23 | volasertib -0.009 | [2] 0.057 | epoxomicin 0.076 | [3] 0.025 | [4] -0.12 | [5] -0.021 | rosiglitazone 0.047 | [6] -0.018 | [7] 0.259 | saracatinib 0.005 | sotrastaurin 0.047 | alvocidib -0.069 | Tubastatin A 0.031 | [8] -0.137 | defactinib -0.018 | rucaparib -0.065 | [9] -0.016 | encorafenib -0.038 | [10] -0.032

M6PR (UniProt P20645)
inactive: [1] 0.02 | volasertib 0 | [2] -0.04 | epoxomicin 0.046 | [3] -0.037 | [4] -0.061 | [5] -0.014 | rosiglitazone -0.039 | [6] 0.007 | [7] -0.009 | saracatinib 0.016 | sotrastaurin -0.005 | alvocidib -0.048 | Tubastatin A -0.071 | [8] 0.059 | defactinib -0.03 | rucaparib 0.026 | [9] -0.05 | encorafenib -0.059 | [10] 0.088

LRRFIP2 (UniProt Q9Y608)
inactive: [1] 0.067 | volasertib 0.08 | [2] 0.007 | epoxomicin 0.018 | [3] -0.036 | [4] -0.017 | [5] 0 | rosiglitazone -0.003 | [6] -0.018 | [7] -0.019 | saracatinib -0.001 | sotrastaurin -0.003 | alvocidib 0.039 | Tubastatin A 0.009 | [8] 0.013 | defactinib -0.039 | rucaparib -0.002 | [9] -0.017 | encorafenib -0.01 | [10] 0.014
